Measured values: patent US11253498B2, “Pharmaceutical composition for treatment of bone-related disease” (Nexyon Biotech Co., Ltd., priority 2017, dated 2022)
At least one compound was matched to its structure with a doubt left.

Tested on: preosteoblast cells
Assay: Osteoblast mineralized nodules, alizarin red staining (Example 1-2)
Type: cell-based, mice
Conditions: concentration series, vs negative control (0 μM); FIG. 2 and FIG. 3
Procedure: In order to isolate preosteoblast cells, the calvarium was removed from 1- to 3-day-old mice, and then preosteoblast cells were obtained via a process in which the calvarium was subjected to treatment with 1 mg/ml collagenase and 2 mg/ml dispase.
Here, the medium for differentiation induction was replaced with fresh medium at 2- to 3-day intervals, and differentiation induction was performed for a total of 21 days. In order to identify the differentiation into osteoblasts, alizarin red staining was performed. Differentiation-induced cells were fixed by being incubated with 10% neutral formalin at 4° C. for 20 minutes, and then stained by being incubated with 1.36% alizarin red solution (pH 4.1 to 4.3) for 40 minutes. The results are illustrated in FIG. 1.
The results obtained by performing quantification with tauroursodeoxycholic acid, deoxycholic acid, or taurocholic acid are illustrated in FIG. 3.

In the case of `C[C@H](CCC(=O)O)[C@H]1CC[C@H]2[C@@H]3CC[C@@H]4C[C@H](O)CC[C@]4(C)[C@H]3C[C@H](O)[C@]12C` [deoxycholic acid], the “effect on the differentiation into osteoblasts (quantified, absorbance 570 nm)” value is reported as “no significant difference”.
